This is an account of results in PubChem BioAssay AID2685 (National Center for Advancing Translational Sciences (NCATS), 2010).

The assay is described as follows: qHTS Assay for Lipid Storage Modulators in Drosophila S3 Cells.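 As to cell number change: cells counted by Cell Tracker Red CMTPX staining in the red channel.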 Particulars: BODIPY lipid droplet fluorescence, 18-24 h; for cell number change: measured here: cell count max response, cells fed with added oleic acid. A digest of the protocol: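 Laser-scanning cytometry quantifies lipid droplet accumulation (500–530 nm total intensity; droplet/cell object ratio) in oleic acid-fed (400 uM added) Drosophila S3 cells treated with a concentration series. 20 uM Triacsin C defined 100% inhibition.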
A general note: Quantitative high-throughput screening tests each substance at several concentrations.

Where [1] appears, read: measured here: lipid fluorescence (Fed channel) AC50, cells fed with added oleic acid.
Where [2] appears, read: measured here: cell number channel AC50, cells fed with added oleic acid.

The list shows a part of the results. Shown are side measurements of this screen, not its main read-out; they come without a call. Most of these compounds were active or inconclusive in the main read-out, so they are no random draw. Potencies come from curve fits of mixed quality, noted in brackets.

As usually defined, the AC50 is the concentration giving half of the maximal activity seen. A higher AC50 goes with activity only at high concentration. For `Cc1ccc(C)c(CN2C(=O)c3ccccc3S(=O)c3ccc(C(=O)N4CCN(c5ccccn5)CC4)cc32)c1` (stereo not drawn), the cell number change worked out at 34.6%. Moreover, the AC50 under setting [1] is 13 µM [rising, partial curve].
As to `COc1ccc(Cn2c(=O)sc3ccccc32)cc1OC`, the cell number change was -25.9%.
As for `CCC1Oc2ccc(C)cc2N(CC(=O)NCc2ccccc2OC)C1=O` (stereo not drawn), the cell number change is -40.8%. Under setting [2], the AC50 was 29.1 µM [falling, single point]. For the same molecule, the AC50 under setting [1] was 29.1 µM [falling, single point].
Regarding `Cc1nn(CC(=O)Nc2ccc(Cl)cc2Cl)c(=O)c2ccccc12`, the cell number change came out at 22.3%. Also, the AC50 under setting [2] was 0.103 µM [rising, full curve, poor fit].
Consider `Cc1ccc(CN(C)C(=O)c2cccc(S(=O)(=O)N3CCCC3)c2)cc1`, for which the cell number change is -4.27%. The AC50 under setting [1] is 2.91 µM [rising, full curve, poor fit].
For the molecule `O=C(CN1C(=O)C(=O)N(C2CCCC2)C1=O)Nc1ccc(Cl)cc1C(F)(F)F`, the cell number change was -29.9%. The AC50 under setting [1] is 6.51 µM [rising, single point].
Take `CCN(CC)S(=O)(=O)c1ccc(NC2CCN(Cc3ccccc3)CC2)nc1`: the cell number change was -10.8%.
Consider `CC(=O)N1CCN(C(=O)c2ccc3c(c2)OCCO3)CC1`, for which the AC50 under setting [2] is 1.16 µM [falling, partial curve].
Regarding `CC(C)(OC(=O)c1ccc(C(F)(F)F)cc1)c1cc2ccccc2c(=O)o1`, the cell number change is -21.6%. Further, the concentration at half-maximal activity (AC50) under setting [1] was 4.11 µM [falling, single point].
Take `COc1cc(CNC(C)C23CC4CC(CC(C4)C2)C3)cc(OC)c1OC` (stereo not drawn): the cell number change is 16.3%.
As for `CN(CC(=O)Nc1ccccc1Cl)C(=O)COC(=O)c1ccc(Cl)cc1[N+](=O)[O-]`, the cell number change worked out at 18.8%. Also, the half-maximal activity concentration (AC50) under setting [2] is 2.91 µM [rising, full curve, poor fit]. The AC50 under setting [1] was 5.17 µM [rising, single point].
For `Cc1[nH]c(=S)c(C#N)c(C)c1C(=O)Nc1ccccc1`, the concentration at half-maximal activity (AC50) under setting [1] is 1.84 µM [falling, partial curve, poor fit].
As for `O=S(=O)(c1ccc(Cl)cc1)N1CCN(c2ccc(N3CCOCC3)nn2)CC1`, the cell number change stood at 30.1%. For the same molecule, the AC50 under setting [2] is 29.1 µM [rising, single point].
In the case of `CCN(CC)S(=O)(=O)c1ccc(Cl)nc1`, the cell number change was -15.6%. Under setting [2], the AC50 is 0.651 µM [falling, partial curve, poor fit]. Further, the half-maximal activity concentration (AC50) under setting [1] was 0.092 µM [falling, full curve, poor fit].
Consider `COc1ccc(C(CNC(=O)c2cc(C)on2)N(C)C)cc1` (stereo not drawn), for which the cell number change is -2.52%. In addition, the concentration at half-maximal activity (AC50) under setting [1] is 6.51 µM [rising, single point].
As to `O=C1CSC2(N1)C1CC3CC(C1)CC2C3` (stereo not drawn), the cell number change is -3.23%. Under setting [2], the AC50 was 0.00461 µM [rising, full curve, poor fit].
For the molecule `COc1ccc(/C=N/OCC(=O)N2CC3(C)CC2CC(C)(C)C3)cc1OC` (stereo not drawn), the cell number change turned out to be 69.8%. Moreover, the AC50 under setting [2] is 1.64 µM [rising, full curve]. The AC50 under setting [1] is 2.59 µM [rising, full curve].
For `COc1ccccc1-n1cnnc1SCC(=O)N1CCOCC1`, the half-maximal activity concentration (AC50) under setting [1] was 0.0103 µM [falling, full curve].
Turning to `CC(C)N(C(=O)C(=O)c1cccn1-c1ccccc1C#N)C(C)C`, the cell number change is -93.3%. Further, the concentration at half-maximal activity (AC50) under setting [2] is 29.1 µM [falling, partial curve]. In addition, under setting [1], the AC50 is 0.13 µM [falling, full curve, poor fit].
`C=CCC1NS(=O)(=O)O[C@H](CCCC)[C@@H]1O` (stereo partly drawn): the cell number change amounted to 39.5%. Further, the AC50 under setting [2] was 20.6 µM [rising, partial curve, poor fit].
As for `Clc1ccccc1CN1CCN(/N=C/C=C\c2ccco2)CC1`, under setting [2], the half-maximal activity concentration (AC50) is 0.731 µM [rising, single point].
Regarding `COc1cc2c(cc1OC)C(c1cc(Br)c(OC)c(OC)c1)CC(=O)N2` (stereo not drawn), the cell number change is -14.3%. In addition, under setting [1], the AC50 is 20.6 µM [falling, single point].
For `Cc1nnc(SCc2ccc(Cl)c(Cl)c2)s1`, the cell number change was found to be 15.8%. Also, the half-maximal activity concentration (AC50) under setting [1] was 10.3 µM [rising, single point].
`CCOC(=O)c1[nH]c(C)c(C(=O)NCCC2=CCCCC2)c1C`: the cell number change amounted to 36.5%. Further, the concentration at half-maximal activity (AC50) under setting [2] is 29.1 µM [rising, single point]. In addition, under setting [1], the concentration at half-maximal activity (AC50) was 3.66 µM [rising, full curve].
With `CCOC(=O)C1(C)NC(c2ccc(OC)c(OC)c2)C2C(=O)N(CC)C(=O)C21` (stereo not drawn), the cell number change is -81.2%. For the same molecule, the AC50 under setting [2] is 18.4 µM [falling, partial curve, poor fit].
Turning to `COc1ccccc1C(=O)C1CCCN(C(=O)CN2CCCCC2=O)C1` (stereo not drawn), the cell number change is -23.1%.
With `COc1cccc(CNC(=O)c2ccc(NC3=NC4CS(=O)(=O)CC4S3)cc2)c1` (stereo not drawn), the half-maximal activity concentration (AC50) under setting [1] is 29.1 µM [rising, single point].
For the molecule `CC(=O)Nc1ccc(Cl)c(C(N)=O)c1`, the AC50 was 0.00461 µM [falling, full curve, poor fit] under setting [2] and 0.82 µM [falling, partial curve] under setting [1].
As for `COc1cc(S(=O)(=O)Nc2cccc(C)c2)ccc1NC(=O)c1cccnc1`, the cell number change was 54%. Moreover, under setting [2], the AC50 is 3.66 µM [rising, partial curve, poor fit]. Besides, the AC50 under setting [1] was 6.51 µM [rising, partial curve, poor fit].
In the case of `O=S(=O)(Cc1ccccc1)N1CCn2c(nc3ccccc32)C1`, the cell number change was -1.98%. The concentration at half-maximal activity (AC50) under setting [1] was 0.0326 µM [rising, full curve].
Regarding `Cc1cc(C)cc(N2CC34C=CC(O3)C(C(=O)OCC(=O)NCc3ccco3)C4C2=O)c1` (stereo not drawn), the cell number change was -32.2%. In addition, under setting [2], the half-maximal activity concentration (AC50) was 5.8 µM [falling, full curve, poor fit]. Moreover, the AC50 under setting [1] was 4.61 µM [rising, full curve, poor fit].
For `CS(=O)(=O)N(CC(=O)NCc1ccncc1)c1cc(Cl)ccc1Cl`, the cell number change is -19.2%.
With `CCOC(=O)C1=C(c2cccc(F)c2)NC(=S)NC1C` (stereo not drawn), the cell number change is 82.1%. For the same molecule, the AC50 under setting [2] is 5.8 µM [rising, partial curve, poor fit]. In addition, the AC50 under setting [1] was 0.366 µM [rising, full curve].
Take `Cc1cc2cc(CNC(=O)c3ccco3)ccc2n1C`: the cell number change is -63.8%. In addition, the half-maximal activity concentration (AC50) under setting [2] is 14.6 µM [falling, partial curve]. For the same molecule, the AC50 under setting [1] was 16.4 µM [falling, partial curve].
As for `COc1cccc(C2NC(=O)NC(C)=C2C(=O)OCC2CCCO2)c1` (stereo not drawn), the cell number change came out at 6.51%.
Regarding `CC1CCN(c2ccc(-c3ccc(NC(=O)C(F)(F)F)cc3)nn2)CC1`, the cell number change was -88.9%. Moreover, the concentration at half-maximal activity (AC50) under setting [1] is 2.59 µM [rising, partial curve].
For `CCC(=O)N1c2ccc(S(=O)(=O)CCC(=O)NCc3cccs3)cc2CC1C` (stereo not drawn), the cell number change worked out at 43.4%. In addition, the AC50 under setting [2] is 11.6 µM [rising, partial curve, poor fit].
In the case of `N#C/C(=C\c1cc2c(cc1Br)OCO2)C(=O)NCC1CCCO1` (stereo not drawn), the cell number change was -22.9%. Further, the concentration at half-maximal activity (AC50) under setting [1] is 29.1 µM [falling, single point].
`COc1ccc(C2=CC(=O)C=CC2=O)cc1`: the cell number change was -41.1%. Under setting [2], the AC50 is 5.8 µM [falling, full curve]. The concentration at half-maximal activity (AC50) under setting [1] was 6.51 µM [falling, full curve].
Consider `O=S(=O)(c1ccccc1)c1nc(-c2ccccc2)oc1N1CCCCC1`, for which the cell number change was -98.4%. Further, under setting [2], the AC50 was 4.61 µM [falling, single point].
Turning to `CCOc1ccc(C(=O)Nc2ccc3c(c2)OCCO3)cc1`, the cell number change was -9.45%. Also, under setting [1], the AC50 was 29.1 µM [rising, single point].
Take `COc1ccc(-n2nc3c(c2NC(=O)C2CCCC2)CS(=O)C3)cc1` (stereo not drawn): the cell number change amounted to 17.1%.
Take `O=C(Cn1c(=O)oc2cc(S(=O)(=O)N3CCOCC3)ccc21)N1CCc2ccccc2C1`: the cell number change was -36.3%. Further, the AC50 under setting [2] is 18.4 µM [falling, single point]. Besides, the AC50 under setting [1] was 6.51 µM [falling, single point].
Take `Cc1nn(Cc2ccc(Cl)cc2)c(C)c1NC(=O)CCCn1nc(C)c([N+](=O)[O-])c1C`: the half-maximal activity concentration (AC50) under setting [1] is 1.46 µM [falling, full curve].
On to `COc1ccc([C@H]2CC(=O)C=C(c3ccc(Cl)c(C(F)(F)F)c3)C2)cc1`, for which the cell number change turned out to be 1.49%.
Take `CCOC(=O)COc1ccc2c(c1)C(=O)CC1(CCN(C(C)=O)CC1)O2`: the cell number change was -13.9%. For the same molecule, the AC50 under setting [2] was 0.103 µM [falling, full curve, poor fit].
Regarding `O=C(N/N=C1/CCCc2ccccc21)c1cc([N+](=O)[O-])cc([N+](=O)[O-])c1`, the AC50 reads like this: under setting [2], 0.0651 µM [falling, full curve, poor fit]; under setting [1], 0.0731 µM [falling, full curve, poor fit].
Take `Cc1ccc(S(=O)(=O)NNC(=O)c2ccccc2-n2cccc2)cc1`: the cell number change came out at 47%. Moreover, the concentration at half-maximal activity (AC50) under setting [2] was 0.82 µM [rising, partial curve].
Turning to `C=CCn1c(SCCCC)nc(O)cc1=O`, the cell number change stood at 8.73%.
With `COC(=O)c1sccc1-n1cccc1C(=O)N1CCOCC1`, the cell number change was -22.2%. The AC50 under setting [1] was 1.46 µM [falling, full curve, poor fit].
As for `O=S(=O)(Cc1ccccc1)Nc1cccc(Br)c1`, the cell number change came out at 5.9%. Also, the half-maximal activity concentration (AC50) under setting [1] is 8.2 µM [falling, partial curve].
Take `CC1(c2nnc(-c3ccncc3)o2)CC(c2c(Cl)cccc2Cl)=NO1` (stereo not drawn): the cell number change was determined as 18.2%. The AC50 under setting [1] was 29.1 µM [rising, single point].
For the molecule `Cc1nn(CC#N)c(=O)n1-c1ccc(C(C)C)cc1`, the cell number change came to 26.1%. Also, under setting [1], the half-maximal activity concentration (AC50) is 7.08 µM [rising, partial curve, poor fit].
On to `CC(C(=O)NCCS(=O)(=O)c1ccc(Cl)cc1)S(=O)(=O)c1ccc(Cl)cc1` (stereo not drawn), for which the cell number change was -19.3%.
On the same count and under the same terms, the result for `CC(C)CCNc1nc(N)c([N+](=O)[O-])c(NC2CCCCC2)n1` reads 4.23%.
As for `Cc1noc(C)c1C(=O)NC(C)C12CC3CC(CC(C3)C1)C2` (stereo not drawn), the cell number change was -21.8%. In addition, the concentration at half-maximal activity (AC50) under setting [1] is 16.4 µM [falling, partial curve].
Take `C=CCn1c(CCSCc2ccccc2)n[nH]c1=S`: the cell number change worked out at 10.8%. Moreover, the AC50 under setting [1] is 0.517 µM [falling, full curve, poor fit].
Regarding `COc1ccc(C(=O)CN2C(=O)c3ccccc3C2=O)c(OC)c1C`, the AC50 reads like this: under setting [2], 5.17 µM [falling, partial curve]; under setting [1], 4.61 µM [falling, partial curve].
For the molecule `CCCCn1c(CNC(=O)CC)nc2ccccc21`, under setting [2], the half-maximal activity concentration (AC50) is 0.731 µM [falling, full curve].
For the molecule `O=C(COC(=O)c1ccc(NS(=O)(=O)c2cccs2)cc1)NCC1CCCO1` (stereo not drawn), the concentration at half-maximal activity (AC50) under setting [1] was 0.651 µM [rising, full curve].
